One substance from paper PMC8112867 can be followed below.

The chains behind the UniProt entries cited, without tags or fusion partners.
UniProt Q8R3S6: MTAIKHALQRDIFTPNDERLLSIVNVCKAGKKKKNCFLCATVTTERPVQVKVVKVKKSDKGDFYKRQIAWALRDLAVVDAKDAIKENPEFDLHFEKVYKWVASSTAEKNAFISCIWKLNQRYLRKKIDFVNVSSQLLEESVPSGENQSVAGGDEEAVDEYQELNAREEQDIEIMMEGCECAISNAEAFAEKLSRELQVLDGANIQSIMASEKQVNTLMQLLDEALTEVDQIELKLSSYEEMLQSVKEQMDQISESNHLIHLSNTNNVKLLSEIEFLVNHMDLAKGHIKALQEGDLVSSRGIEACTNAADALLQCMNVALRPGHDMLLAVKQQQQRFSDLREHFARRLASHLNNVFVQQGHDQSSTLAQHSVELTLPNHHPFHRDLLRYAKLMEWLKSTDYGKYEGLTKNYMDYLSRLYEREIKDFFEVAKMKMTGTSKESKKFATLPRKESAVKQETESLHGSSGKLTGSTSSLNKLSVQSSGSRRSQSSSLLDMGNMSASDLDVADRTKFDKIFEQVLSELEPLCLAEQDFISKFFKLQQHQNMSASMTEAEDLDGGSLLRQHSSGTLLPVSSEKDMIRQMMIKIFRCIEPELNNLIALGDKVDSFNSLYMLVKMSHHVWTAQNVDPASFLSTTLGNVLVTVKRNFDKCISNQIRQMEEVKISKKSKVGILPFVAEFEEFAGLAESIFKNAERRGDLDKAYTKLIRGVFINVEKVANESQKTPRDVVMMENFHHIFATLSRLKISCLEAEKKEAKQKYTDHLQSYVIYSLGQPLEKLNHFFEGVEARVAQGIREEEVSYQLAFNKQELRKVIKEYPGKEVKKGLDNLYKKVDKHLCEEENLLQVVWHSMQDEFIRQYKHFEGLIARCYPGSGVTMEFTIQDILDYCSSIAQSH

This assay addresses T1, endogenous SNAP23 (mouse (endogenous in testis)) (UniProt O09044).
T1 sequence: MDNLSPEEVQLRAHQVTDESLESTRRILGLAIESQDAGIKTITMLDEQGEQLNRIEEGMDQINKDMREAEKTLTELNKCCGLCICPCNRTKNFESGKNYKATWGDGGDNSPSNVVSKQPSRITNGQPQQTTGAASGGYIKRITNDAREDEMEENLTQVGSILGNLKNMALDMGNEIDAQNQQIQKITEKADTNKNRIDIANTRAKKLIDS
Kind of assay: co-IP; adult Exoc1 PA-N/PA-N mouse testis lysate (1.5 mg total protein; 20 mM Tris-HCl, 150 mM NaCl, 1 mM EDTA, 1% triton X-100); anti-SNAP23 antibody or normal rabbit IgG 1 hr at 4°C, Protein G magnetic beads; PA-EXOC1 detected by anti-PA-tag blot.

No constants are given. Whether binding was seen depends on the method and setting. Binding seen in cells or lysates may run through a third protein. Some results given as binding are weak or reduced against the parent protein; the word gives no strength.

For the substance “PA-tagged EXOC1 (Exoc1 PA-N knock-in) (from UniProt Q8R3S6 1-894)”, the binding entry is recorded as “binds”.
